Here are results for 2 substances from patent publication US20150203575A1.

Protein sequences, listed by entry. Tags and fused reporters are not part of them. Lines headed by an entry give the natural chain unless they say otherwise; changes in a name come on top.
UniProt Q9Y286: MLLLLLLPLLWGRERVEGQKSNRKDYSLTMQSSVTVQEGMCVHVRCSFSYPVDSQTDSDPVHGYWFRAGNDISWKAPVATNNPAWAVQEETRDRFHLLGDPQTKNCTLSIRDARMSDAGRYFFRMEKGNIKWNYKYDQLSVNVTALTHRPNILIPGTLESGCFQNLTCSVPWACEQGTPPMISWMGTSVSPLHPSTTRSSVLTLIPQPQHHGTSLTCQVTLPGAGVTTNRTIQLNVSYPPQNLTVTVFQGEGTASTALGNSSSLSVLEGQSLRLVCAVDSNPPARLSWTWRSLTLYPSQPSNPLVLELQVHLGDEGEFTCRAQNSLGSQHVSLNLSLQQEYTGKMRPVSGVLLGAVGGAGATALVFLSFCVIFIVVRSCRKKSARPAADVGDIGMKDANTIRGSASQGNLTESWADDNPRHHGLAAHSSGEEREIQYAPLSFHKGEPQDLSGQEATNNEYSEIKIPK
UniProt Q16651: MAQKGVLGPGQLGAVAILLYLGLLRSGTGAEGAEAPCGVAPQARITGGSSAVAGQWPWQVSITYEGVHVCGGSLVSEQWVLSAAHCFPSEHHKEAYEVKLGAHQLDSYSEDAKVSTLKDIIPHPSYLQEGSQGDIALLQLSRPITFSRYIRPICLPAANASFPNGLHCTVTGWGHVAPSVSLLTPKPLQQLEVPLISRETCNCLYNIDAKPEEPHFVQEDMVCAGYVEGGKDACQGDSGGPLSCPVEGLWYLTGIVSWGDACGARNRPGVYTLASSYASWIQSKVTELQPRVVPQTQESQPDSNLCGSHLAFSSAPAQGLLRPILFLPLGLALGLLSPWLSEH
UniProt P06734: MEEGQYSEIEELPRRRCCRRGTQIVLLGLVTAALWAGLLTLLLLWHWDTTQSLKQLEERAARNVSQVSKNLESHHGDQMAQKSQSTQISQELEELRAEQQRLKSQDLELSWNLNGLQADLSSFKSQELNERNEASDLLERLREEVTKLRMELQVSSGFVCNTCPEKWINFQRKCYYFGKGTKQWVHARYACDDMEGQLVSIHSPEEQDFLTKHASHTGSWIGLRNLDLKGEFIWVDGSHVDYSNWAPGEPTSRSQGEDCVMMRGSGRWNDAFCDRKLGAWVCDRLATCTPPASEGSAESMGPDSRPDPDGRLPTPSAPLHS
UniProt Q9UKJ1: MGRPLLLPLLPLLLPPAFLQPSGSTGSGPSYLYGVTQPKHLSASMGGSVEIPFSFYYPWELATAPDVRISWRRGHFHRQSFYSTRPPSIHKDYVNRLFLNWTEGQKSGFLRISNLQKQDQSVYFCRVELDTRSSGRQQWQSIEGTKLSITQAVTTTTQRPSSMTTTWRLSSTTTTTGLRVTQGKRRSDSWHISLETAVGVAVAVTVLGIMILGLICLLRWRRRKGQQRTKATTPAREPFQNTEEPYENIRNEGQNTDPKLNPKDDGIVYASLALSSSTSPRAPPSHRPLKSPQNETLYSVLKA
UniProt Q2YFS2: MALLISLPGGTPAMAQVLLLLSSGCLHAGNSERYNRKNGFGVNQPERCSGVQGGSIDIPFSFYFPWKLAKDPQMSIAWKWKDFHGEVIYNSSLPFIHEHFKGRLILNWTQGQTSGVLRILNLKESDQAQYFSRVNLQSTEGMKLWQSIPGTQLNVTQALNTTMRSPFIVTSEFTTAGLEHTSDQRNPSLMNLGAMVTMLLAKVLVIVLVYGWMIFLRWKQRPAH

Experiment [1] deals with T1, SIGLEC7 expressed on cells (human) (UniProt Q9Y286).
T1 sequence: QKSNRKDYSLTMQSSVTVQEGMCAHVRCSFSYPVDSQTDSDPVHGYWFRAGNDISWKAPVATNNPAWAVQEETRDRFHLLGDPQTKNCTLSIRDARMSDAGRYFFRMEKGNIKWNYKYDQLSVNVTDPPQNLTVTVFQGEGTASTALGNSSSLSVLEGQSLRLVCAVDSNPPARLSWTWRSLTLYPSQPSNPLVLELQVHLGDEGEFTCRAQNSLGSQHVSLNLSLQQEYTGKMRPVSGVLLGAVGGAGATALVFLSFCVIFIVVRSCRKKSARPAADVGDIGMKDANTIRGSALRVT
Description: cDNA expression library screen with PILRα-AP supernatant on COS7 transfectants; positive clones further analysed by FACS. For orientation: A flow cytometer gives signals particle by particle.

Experiment [2] concerns the target PSS8 expressed on cells (human) (UniProt Q16651). Described as above.
Experiment [3] has as its target T2, DAG1 expressed on cells (human) (UniProt Q14118).
T2 sequence: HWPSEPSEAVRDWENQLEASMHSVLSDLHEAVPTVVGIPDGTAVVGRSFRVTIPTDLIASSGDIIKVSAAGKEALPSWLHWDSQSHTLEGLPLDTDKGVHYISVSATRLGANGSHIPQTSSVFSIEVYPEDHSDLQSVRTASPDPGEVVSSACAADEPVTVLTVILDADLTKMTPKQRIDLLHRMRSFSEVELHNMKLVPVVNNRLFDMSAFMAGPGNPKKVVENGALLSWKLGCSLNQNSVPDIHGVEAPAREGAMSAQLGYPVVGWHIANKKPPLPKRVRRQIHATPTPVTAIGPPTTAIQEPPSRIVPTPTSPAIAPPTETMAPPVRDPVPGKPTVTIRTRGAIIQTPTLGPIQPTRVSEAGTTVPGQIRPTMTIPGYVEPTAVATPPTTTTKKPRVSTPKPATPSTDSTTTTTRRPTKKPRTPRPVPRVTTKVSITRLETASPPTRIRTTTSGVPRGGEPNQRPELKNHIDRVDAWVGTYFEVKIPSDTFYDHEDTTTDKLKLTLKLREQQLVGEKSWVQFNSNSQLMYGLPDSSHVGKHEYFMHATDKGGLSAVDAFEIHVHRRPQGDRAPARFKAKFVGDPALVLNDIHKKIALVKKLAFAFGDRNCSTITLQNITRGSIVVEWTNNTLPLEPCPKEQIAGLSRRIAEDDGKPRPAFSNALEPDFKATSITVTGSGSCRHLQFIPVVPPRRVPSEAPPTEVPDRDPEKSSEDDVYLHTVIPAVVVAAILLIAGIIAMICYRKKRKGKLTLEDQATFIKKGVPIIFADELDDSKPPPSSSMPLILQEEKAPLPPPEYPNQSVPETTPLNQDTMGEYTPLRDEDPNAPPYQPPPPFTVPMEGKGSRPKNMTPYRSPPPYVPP
The experiment is described as above.

Experiment [4] deals with FceRII expressed on cells (human) (UniProt P06734). Description: binding to ligand transfectants (FIG. 8C).
The target is the same in experiment [5]. Description: binding to ligand transfectants (FIG. 9C).

No constants are given. Whether binding was seen depends on the method and setting. Some binding calls cover weakened binding; strength is not graded here.

Take hPILRα-AP (from UniProt Q9UKJ1 20-196): the binding result in experiment [1], in experiment [2] and in experiment [3] was “binds” throughout.

Regarding “mPILRβ (from UniProt Q2YFS2 29-195) (receptor)”, the binding result in experiment [4] and in experiment [5] was “binds” each time.
